No constants are given. Whether binding was seen depends on the method and setting. For some assays here: Binding seen in cells or lysates may run through a third protein. Some entries that bind do so weakly or less than the wild type. Where a sequence is shown, tags or fusion partners need not be part of it.
Key:
[1] = target: AtFT (Arabidopsis FLOWERING LOCUS T), yeast two-hybrid fusion (Arabidopsis), Q9SXZ2; assay: two-hybrid; directed test of pairs in yeast (Fig 7B): FT proteins against pAD:PaFD, its deletion and point mutants; AtFT with AtFD as positive control; conditions: remark: other sources report otherwise
[2] = target: AtFT, BiFC fusion expressed in Arabidopsis cells (Arabidopsis), Q9SXZ2; assay: split reporter; BiFC with split YFP in Arabidopsis leaf cells after particle bombardment; fluorescence intensity of nuclei compared; conditions: remark: other sources report otherwise

Row | Binder | binding [1] | binding [2]
1 | AtFD, yeast two-hybrid fusion, Q84JK2 1-285 (protein) MLSSAKHQRNHRLSATNKNQTLTKVSSISSSSPSSSSSSSSTSSSSPLPSQDSQAQKRSLVTMEEVWNDINLASIHHLNRHSPHPQHNHEPRFRGQNHHNQNPNSIFQDFLKGSLNQEPAPTSQTTGSAPNGDSTTVTVLYSSPFPPPATVLSLNSGAGFEFLDNQDPLVTSNSNLHTHHHLSNAHAFNTSFEALVPSSSFGKKRGQDSNEGSGNRRHKRMIKNRESAARSRARKQAYTNELELEVAHLQAENARLKRQQDQLKMAAAIQQPKKNTLQRSSTAPF | binds | –
2 | AtFD, BiFC fusion expressed in Arabidopsis cells, Q84JK2 1-285 (protein) MLSSAKHQRNHRLSATNKNQTLTKVSSISSSSPSSSSSSSSTSSSSPLPSQDSQAQKRSLVTMEEVWNDINLASIHHLNRHSPHPQHNHEPRFRGQNHHNQNPNSIFQDFLKGSLNQEPAPTSQTTGSAPNGDSTTVTVLYSSPFPPPATVLSLNSGAGFEFLDNQDPLVTSNSNLHTHHHLSNAHAFNTSFEALVPSSSFGKKRGQDSNEGSGNRRHKRMIKNRESAARSRARKQAYTNELELEVAHLQAENARLKRQQDQLKMAAAIQQPKKNTLQRSSTAPF | – | binds
